For part of these data: Results from cells or extracts need not show a direct contact.
Key:
Dicer (Homo sapiens) = Dicer (Homo sapiens) (UniProt Q9UPY3); assay: enzyme reaction in vitro; conditions: 37 C, 1-2 h, purified recombinant protein, protein details: recombinant, Genlantis T520002, label: 32P, variant of A10-3.2 (39nt truncation)
[1] = biological target: PSMA (prostate-specific membrane antigen) (Homo sapiens) (UniProt Q04609); assay: binding assay; conditions: 37 C, protein on the cell surface, label: 32P
[2] = biological target: PSMA (prostate-specific membrane antigen) (Homo sapiens) (UniProt Q04609); assay: flow cytometry; conditions: 2'-F pyrimidines in both strands, binds 22Rv1(1.7), no binding to PC-3, 37 C, protein on the cell surface, label: fluorescent
[3] = biological target: PSMA (prostate-specific membrane antigen) (Homo sapiens) (UniProt Q04609); assay: filter binding; conditions: 2'-F pyrimidines; affinity for LNCaP cells comparable to full-length A10 (0-2 nM RNA, fixed cells, 37 C); specific versus PSMA-negative PC-3 cells; protein on the cell surface; label: 32P; variant of A10 (full-length PSMA aptamer, 71nt)
[4] = 2'-F pyrimidines in long strand, short strand unmodified, cleaved to about 21-mer duplex products
[5] = 2'-F pyrimidines in long strand, short strand unmodified, 32P-RNA binding to LNCaP and 22Rv1(1.7) cells by scintillation, specific versus PC-3, variant of A10-3.2 (39nt truncation)

Chains of the proteins cited; added tags and fusions are not shown. Lines headed by an entry give the natural chain unless they say otherwise; changes in a name come on top.
UniProt Q9UPY3: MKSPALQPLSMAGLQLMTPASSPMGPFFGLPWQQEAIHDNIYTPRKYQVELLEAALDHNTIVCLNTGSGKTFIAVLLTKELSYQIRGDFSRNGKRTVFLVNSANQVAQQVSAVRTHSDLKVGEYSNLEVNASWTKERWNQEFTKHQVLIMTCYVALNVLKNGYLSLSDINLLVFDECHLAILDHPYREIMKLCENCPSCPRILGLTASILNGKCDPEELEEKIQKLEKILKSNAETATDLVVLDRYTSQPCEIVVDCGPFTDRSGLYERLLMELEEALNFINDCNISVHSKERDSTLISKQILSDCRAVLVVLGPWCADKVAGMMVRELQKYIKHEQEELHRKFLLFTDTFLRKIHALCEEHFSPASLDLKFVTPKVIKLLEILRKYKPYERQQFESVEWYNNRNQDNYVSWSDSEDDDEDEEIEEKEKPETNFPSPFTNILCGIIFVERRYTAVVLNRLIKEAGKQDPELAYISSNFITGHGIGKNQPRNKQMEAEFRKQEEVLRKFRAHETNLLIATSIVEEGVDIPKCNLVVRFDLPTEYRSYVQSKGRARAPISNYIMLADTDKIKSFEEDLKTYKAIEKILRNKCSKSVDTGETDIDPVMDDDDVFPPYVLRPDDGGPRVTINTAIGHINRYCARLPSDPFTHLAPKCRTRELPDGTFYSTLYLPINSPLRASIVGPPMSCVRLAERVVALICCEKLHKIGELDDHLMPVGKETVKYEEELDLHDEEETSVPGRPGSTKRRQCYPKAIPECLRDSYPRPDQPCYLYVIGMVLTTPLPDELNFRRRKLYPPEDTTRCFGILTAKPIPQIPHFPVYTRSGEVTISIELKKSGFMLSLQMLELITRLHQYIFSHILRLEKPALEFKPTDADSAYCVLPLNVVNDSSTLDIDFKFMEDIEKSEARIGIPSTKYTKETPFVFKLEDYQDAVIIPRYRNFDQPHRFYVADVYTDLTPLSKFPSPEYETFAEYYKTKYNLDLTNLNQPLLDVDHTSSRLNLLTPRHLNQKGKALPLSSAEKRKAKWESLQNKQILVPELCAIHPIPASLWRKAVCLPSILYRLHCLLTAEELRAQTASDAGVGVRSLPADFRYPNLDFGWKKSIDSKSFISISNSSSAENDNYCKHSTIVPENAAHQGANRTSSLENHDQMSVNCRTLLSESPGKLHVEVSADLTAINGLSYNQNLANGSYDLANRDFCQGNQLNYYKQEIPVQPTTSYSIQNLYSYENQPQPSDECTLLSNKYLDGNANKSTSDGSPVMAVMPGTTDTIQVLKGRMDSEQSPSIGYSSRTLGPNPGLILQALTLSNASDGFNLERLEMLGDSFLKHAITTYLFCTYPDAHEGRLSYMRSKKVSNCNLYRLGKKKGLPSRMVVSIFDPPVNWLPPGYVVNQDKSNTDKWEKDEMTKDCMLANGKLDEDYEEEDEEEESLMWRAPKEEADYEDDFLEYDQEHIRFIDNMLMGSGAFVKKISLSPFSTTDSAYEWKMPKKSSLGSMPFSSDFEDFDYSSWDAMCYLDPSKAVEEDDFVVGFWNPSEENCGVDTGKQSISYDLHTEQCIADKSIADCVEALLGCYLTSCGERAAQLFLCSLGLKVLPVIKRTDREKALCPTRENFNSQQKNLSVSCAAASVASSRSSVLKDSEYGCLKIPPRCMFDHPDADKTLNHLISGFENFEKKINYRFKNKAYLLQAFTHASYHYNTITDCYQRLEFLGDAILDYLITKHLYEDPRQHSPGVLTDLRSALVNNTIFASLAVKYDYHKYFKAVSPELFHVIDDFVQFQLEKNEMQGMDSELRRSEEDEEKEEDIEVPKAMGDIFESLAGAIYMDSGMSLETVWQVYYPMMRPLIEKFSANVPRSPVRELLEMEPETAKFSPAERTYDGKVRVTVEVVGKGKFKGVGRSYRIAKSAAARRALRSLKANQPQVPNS
UniProt Q04609: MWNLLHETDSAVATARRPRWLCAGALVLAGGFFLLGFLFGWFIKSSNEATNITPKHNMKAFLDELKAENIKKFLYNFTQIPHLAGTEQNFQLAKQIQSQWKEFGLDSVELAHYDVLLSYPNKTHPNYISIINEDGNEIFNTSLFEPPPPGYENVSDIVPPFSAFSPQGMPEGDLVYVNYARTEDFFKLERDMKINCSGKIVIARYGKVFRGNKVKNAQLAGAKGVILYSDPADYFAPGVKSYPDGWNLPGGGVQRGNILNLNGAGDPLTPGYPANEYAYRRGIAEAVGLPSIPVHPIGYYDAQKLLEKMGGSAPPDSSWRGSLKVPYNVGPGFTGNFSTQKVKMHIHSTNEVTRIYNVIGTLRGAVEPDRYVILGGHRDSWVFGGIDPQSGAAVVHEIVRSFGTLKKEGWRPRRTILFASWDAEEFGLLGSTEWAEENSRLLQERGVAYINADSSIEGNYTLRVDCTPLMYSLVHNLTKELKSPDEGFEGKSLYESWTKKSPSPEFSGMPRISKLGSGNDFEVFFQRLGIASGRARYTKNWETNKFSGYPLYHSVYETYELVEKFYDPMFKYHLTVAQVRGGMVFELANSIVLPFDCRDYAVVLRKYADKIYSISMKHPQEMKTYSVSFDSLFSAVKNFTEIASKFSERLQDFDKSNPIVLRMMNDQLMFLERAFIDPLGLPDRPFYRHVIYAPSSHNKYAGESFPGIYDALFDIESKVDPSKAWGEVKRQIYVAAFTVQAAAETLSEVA

Sequence | activity on this sequence (Dicer (Homo sapiens); [4]) | binding result [1, 5] | further results
GGGAGGACGAUGCGGAUCAGCCAUGUUUACGUCACUCCUAAAAGGGCGGCUUUGCCAAGUGUUU / GCACUUGGCAAAGCCGCCCUU [G-U chimera] | active | binds | 
GGGAGGACGAUGCGGAUCAGCCAUGUUUACGUCACUCCUAAAAGCACUUGGCAAAGCCGCCCUU / GGGCGGCUUUGCCAAGUGCUU [SWAP-2'F-PEG chimera] |  |  | binding result ([2]; 20 kDa PEG at 5' end of short (passenger) strand, 45% internalization after 0.5 M NaCl wash, variant of SWAP-2'F chimera): binds
GGGAGGACGAUGCGGAUCAGCCAUGUUUACGUCACUCCUAAAAGGGCGGCUUUGCCAAGUGC / GCACUUGGCAAAGCCGCCCUU [BLUNT chimera] | active | binds | 
GGGAGGACGAUGCGGAUCAGCCAUGUUUACGUCACUCCUAAAAGCACUUGGCAAAGCCGCCCUU / GGGCGGCUUUGCCAAGUGCUU [SWAP chimera] | active | binds | 
GGGAGGACGAUGCGGAUCAGCCAUGUUUACGUCACUCCUAAAAGCACUUGGCAAAGCCGCCCUU / GGGCGGCUUUGCCAAGUGCUU [SWAP-2'F chimera] |  |  | binding result ([2]; 69% internalization after 0.5 M NaCl wash, variant of SWAP chimera): binds
GGGAGGACGAUGCGGAUCAGCCAUGUUUACGUCACUCCUUGUCAAUCCUCAUCGGCAGACGACUCGCCCGAAAGGGCGGCUUUGCCAAGUGC / GCACUUGGCAAAGCCGCCCUU [A10-Plk1 chimera] |  |  | binding result ([1]; 2'-F pyrimidines in long strand, short strand unmodified, 32P-RNA binding to LNCaP and 22Rv1(1.7) cells by scintillation, DPBS with Ca/Mg, specific versus PC-3, variant of A10 (full-length PSMA aptamer, 71nt)): binds
GGGAGGACGAUGCGGAUCAGCCAUGUUUACGUCACUCCU [A10-3.2 (39nt truncation)] |  |  | binding result [3]: binds
GGGCGGCUUUGCCAAGUGCUUGGGAGGACGAUGCGGAUCAGCCAUGUUUACGUCACUCCUAAGCACUUGGCAAAGCCGCCCUU [Stem Loop chimera] |  |  | activity on this sequence (Dicer (Homo sapiens); 2'-F pyrimidines, end-labeled Stem Loop RNA cleaved to about 21-mer duplex products): active; binding result ([1]; 2'-F pyrimidines, 32P-RNA binding to LNCaP and 22Rv1(1.7) cells by scintillation, specific versus PC-3, variant of A10-3.2 (39nt truncation)): binds
GGGAGGACGAUGCGGAUCAGCCAUGUUUACGUCACUCCUAAAAGGGCGGCUUUGCCAAGUGCUU / GCACUUGGCAAAGCCGCCCUU [OVH chimera] | active | binds | 
GGGAGGACGAUGCGGAUCAGCCAUGUUUACGUCACUCCUUGUCAAUCCUCAUCGGCAGACGACUCGCCCGA [A10 (full-length PSMA aptamer, 71nt)] |  |  | binding result ([1]; 2'-F pyrimidines, 32P-RNA cell binding (scintillation and filter), LNCaP, DPBS with Ca/Mg, tRNA and poly(I:C) block, specific versus PSMA-negative PC-3 cells): binds
